The data set in a line: general procedure: Boc solid-phase peptide synthesis; Boc-Tyr(Br-Z)-O-CH2-PAM resin; DCC/HOBt. The following applies: whole synthesis.

Here are results for one substance from patent US5434133A (Suntory Limited, priority 1991, dated 1995).

HELM strings list residues between dots; [ac] is acetyl, [am] amide, other brackets name non-standard units.

Consider “PEPTIDE1{G.L.S.K.G.C.F.G.G.R.M.D.R.I.G.A.Q.S.E.L.E.C.N.S.F.R.Y}$PEPTIDE1,PEPTIDE1,6:R3-22:R3$$$V2.0”, for which the isolated mass (scale 0.5 mmol) was found to be 150 mg. Also, the “final purity (method not given)” value (scale of the general procedure 0.5 mmol) was “at least 97%”.
